According to article PMC10770081:
No constants are given. Whether binding was seen depends on the method and setting. In cells and extracts the contact can be indirect. Some results given as binding are weak or reduced against the parent protein; the word gives no strength. For some assays here: Tags and fused reporters may be left off the sequences shown.

Key:
[1] = biological target: T1, N-acetyltransferase 10 (NAT10) (human (endogenous in J82 and TCCSUP)) (UniProt Q9H0A0); test: co-IP; endogenous proteins in J82 and TCCSUP lysates; antibody against CLIC3 or against NAT10 versus control IgG; Co-IP buffer 20 mM Tris-HCl pH 7.5, 150 mM NaCl, 1 mM EDTA, 0.5% NP-40; 4 °C; Protein A/G magnetic beads; Western blotting
T1 sequence: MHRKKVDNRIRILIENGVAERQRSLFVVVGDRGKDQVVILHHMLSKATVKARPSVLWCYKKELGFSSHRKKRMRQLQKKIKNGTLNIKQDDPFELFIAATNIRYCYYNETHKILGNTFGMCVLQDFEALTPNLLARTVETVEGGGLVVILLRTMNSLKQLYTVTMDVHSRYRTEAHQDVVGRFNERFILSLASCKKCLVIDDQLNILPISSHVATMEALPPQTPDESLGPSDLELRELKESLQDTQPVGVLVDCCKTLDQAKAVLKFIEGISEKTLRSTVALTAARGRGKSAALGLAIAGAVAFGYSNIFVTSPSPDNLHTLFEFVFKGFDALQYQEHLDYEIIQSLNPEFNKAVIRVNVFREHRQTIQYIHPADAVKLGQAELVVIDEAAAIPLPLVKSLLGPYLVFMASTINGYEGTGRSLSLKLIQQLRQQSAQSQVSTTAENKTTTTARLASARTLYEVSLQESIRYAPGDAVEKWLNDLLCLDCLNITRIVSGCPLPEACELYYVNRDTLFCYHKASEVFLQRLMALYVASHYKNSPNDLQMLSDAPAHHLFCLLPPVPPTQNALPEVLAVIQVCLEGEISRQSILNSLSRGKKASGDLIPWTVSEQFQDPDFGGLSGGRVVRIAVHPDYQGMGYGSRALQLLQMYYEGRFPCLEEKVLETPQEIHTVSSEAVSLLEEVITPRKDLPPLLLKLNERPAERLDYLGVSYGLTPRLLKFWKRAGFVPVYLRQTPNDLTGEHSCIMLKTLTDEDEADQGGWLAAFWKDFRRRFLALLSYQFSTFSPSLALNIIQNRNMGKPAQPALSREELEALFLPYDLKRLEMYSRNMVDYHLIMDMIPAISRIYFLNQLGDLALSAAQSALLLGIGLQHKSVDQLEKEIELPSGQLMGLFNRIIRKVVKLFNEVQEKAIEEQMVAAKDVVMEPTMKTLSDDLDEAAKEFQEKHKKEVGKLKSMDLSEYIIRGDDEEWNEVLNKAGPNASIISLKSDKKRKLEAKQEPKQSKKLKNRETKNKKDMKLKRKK

[2] = biological target: T2, full-length Flag-tagged recombinant NAT10 (UniProt Q9H0A0); test: co-IP; anti-Flag precipitation from J82 cells with Flag-tagged full-length or truncated CLIC3 or NAT10; blot for the endogenous partner; Co-IP buffer 20 mM Tris-HCl pH 7.5, 150 mM NaCl, 1 mM EDTA, 0.5% NP-40; 4 °C
T2 sequence: T1 sequence

binding [1]: binds
binding [2]: binds
B1: Chloride intracellular channel 3 (CLIC3) protein (protein, UniProt O95833 1-236)
chain: MAETKLQLFVKASEDGESVGHCPSCQRLFMVLLLKGVPFTLTTVDTRRSPDVLKDFAPGSQLPILLYDSDAKTDTLQIEDFLEETLGPPDFPSLAPRYRESNTAGNDVFHKFSAFIKNPVPAQDEALYQQLLRALARLDSYLRAPLEHELAGEPQLRESRRRFLDGDRLTLADCSLLPKLHIVDTVCAHFRQAPIPAELRGVRRYLDSAMQEKEFKYTCPHSAEILAAYRPAVHPR
